Results published in US20170340735A1.

The binders below were run against recombinant monomeric cynomolgus monkey TIGIT-His (cynomolgus monkey) (assay: BLI (ForteBio), IgG on AHQ sensor, single antigen concentration).

Row | binding | Binder
1 | no binding (tested: 100 nM antigen) | MAB19-IgG4 (antibody, V domains shown) VH: QVQLVQSGAEVKKPGASVKVSCKASGYTFTSHYMGWVRQAPGQGLEWMGVINPSMGATSYAQKFQGRVTMTRDTSTSTVYMELSSLRSEDTAVYYCARLHVSGSYYPAYLDYWGQGTMVTVSS VL: EIVMTQSPATLSVSPGERATLSCRASQSVSSNLAWYQQKPGQAPRHLIYGASTRATGIPARFSGSGSGTEFTLTISSLQSEDFAVYYCQQYIVFPWTFGGGTKVEIKR
2 | no binding (tested: 100 nM antigen) | MAB21-IgG4 (antibody, V domains shown) VH: QVQLVQSGAEVKKPGASVKVSCKASGYTFTSHYMGWVRQAPGQGLEWMGIINPSMGATSYTQKFRGRVTMTRDTSTSTVYMELSSLRSEDTAVYYCARLHVSGSYYPAYLDYWGQGTMVTVSS VL: EIVMTQSPATLSVSPGERATLSCRASQSVSSNLAWYQQKPGQAPRHLIYGASTRATGIPARFSGSGSGTEFTLTISSLQSEDFAVYYCQQYIVFPWTFGGGTKVEIKR
3 | no binding (tested: 100 nM antigen) | MAB20-IgG4 (antibody, V domains shown) VH: QVQLVQSGAEVKKPGASVKVSCKASGYTFTSHYMGWVRQAPGQGLEWVGIINPSMGATSYAQKFQGRVTMTRDTSTSTVYMELSSLRSEDTAVYYCARLHVSGSYYPAYLDYWGQGTMVTVSS VL: EIVMTQSPATLSVSPGERATLSCRASQSVSSNLAWYQQKPGQAPRHLIYGASTRATGIPARFSGSGSGTEFTLTISSLQSEDFAVYYCQQYIVFPWTFGGGTKVEIKR

These are yes or no findings as the source states them, for the method shown.
